Measured values: PubChem BioAssay AID330 (DTP/NCI, 2004)
The list does not hold the whole screen: it is rich in T/C values a quarter to a half above the control, in often repeated tests (any T/C) and in doses without a T/C. Further doses and runs are listed elsewhere. T/C: endpoint of the treated group in % of that of the vehicle group. Some doses have a count of surviving animals in place of a T/C: the source files T/C as zero there, which appears to mark a toxic dose or a test without result, not a measured value. Some survivor counts are full or nearly so, which does not show that the dose was tolerated: the source hardly ever lists a survival T/C far under the control, and the zero likely stands for such cases as well. Counts of survivors are from the toxicity check (mostly the fifth day) where no day follows; animals may have died later. Schedule codes are those of the source, taken here to give the interval after Q, in days (D) or hours (H), and the number of doses after X. Some entries were tested several times; the results are listed from low to high. Where survival is the endpoint, the PubChem record calls one and a half times the control and up active, and a quarter to a half above the control has no call in these data; cut-offs in other NCI protocols can differ. Some T/C values are followed by the survivors on the day toxicity was checked, most often the fifth; without a count, all were alive then. Additions like (4×) give the number of equal values in this list.

Tested on: P388 leukemia ip, CD2F1 mice, survival T/C
Test: NCI In Vivo Anticancer Drug Screen. Data for tumor model P388 Leukemia (intraperitoneal) in CD2F1 (CDF1) mice
Settings: T/C endpoint: median survival time, higher T/C = longer survival
[1] = dose: 50.0 mg/kg/injection, schedule: Q01DX001 (ip), vehicle: Klucel (hydroxypropylcellulose) (HPC)

## CC(CN1CC(=O)NC(=O)C1)N1CC(=O)NC(=O)C1 (stereo not given)
dose: 12.5 mg/kg/injection, schedule: Q01DX005 (ip), vehicle: Klucel (hydroxypropylcellulose) (HPC), evaluated on day 30
  T/C: 99, 115, 122 (2×), 126, 127, 128, 129 (2×), 130, 132, 133 (3×), 135, 136, 137, 138, 139 (3×), 142, 143, 144, 145, 147, 153, 155, 159, 171, 183, 256 % of control
dose: 12.5 mg/kg/injection, schedule: Q01DX005 (ip), vehicle: Klucel (hydroxypropylcellulose) (HPC), evaluated on day 35
  T/C: 161 % of control
dose: 12.5 mg/kg/injection, schedule: Q01DX009 (ip), vehicle: Klucel (hydroxypropylcellulose) (HPC), evaluated on day 30
  T/C: 124, 125, 129, 130, 140, 141, 149 (2×), 151, 159, 161, 162, 163, 164 (2×), 165, 168 (2×), 169 [5 of 6 alive], 173, 174, 175, 176 (2×), 177, 180, 191, 202, 204, 227, 239, 267, 294 % of control
dose: 12.5 mg/kg/injection, schedule: Q01DX009 (ip), vehicle: Klucel (hydroxypropylcellulose) (HPC), evaluated on day 35
  T/C: 169 and 179 % of control
dose: 18.75 mg/kg/injection, schedule: Q04DX002 (ip), vehicle: Klucel (hydroxypropylcellulose) (HPC)
  T/C: 141 % of control
dose: 25.0 mg/kg/injection, schedule: Q01DX005 (ip), vehicle: Klucel (hydroxypropylcellulose) (HPC), evaluated on day 30
  T/C: 99, 123 [2 of 3 alive], 128, 130, 132 (3×), 139, 140, 141 (3×), 142 (2×), 142 [2 of 3 alive], 144 (2×), 147 (2×), 148, 152, 153 (2×), 154 (2×), 156, 157, 159, 161, 163 (2×), 176 % of control
dose: 25.0 mg/kg/injection, schedule: Q01DX005 (ip), vehicle: Klucel (hydroxypropylcellulose) (HPC), evaluated on day 35
  T/C: 149 % of control
dose: 25.0 mg/kg/injection, schedule: Q01DX009 (ip), vehicle: Klucel (hydroxypropylcellulose) (HPC), evaluated on day 30
  T/C: 119, 124, 130, 145, 146, 148, 149, 151, 152, 158 (2×), 158 [5 of 6 alive], 159, 163, 165, 168, 169, 174, 175, 176, 178, 184, 187, 188, 189, 191, 193, 194, 200, 202, 207, 210, 220 % of control [5 of 6 alive]
dose: 25.0 mg/kg/injection, schedule: Q01DX009 (ip), vehicle: Klucel (hydroxypropylcellulose) (HPC), evaluated on day 35
  T/C: 117 and 183 % of control
dose: 37.5 mg/kg/injection, schedule: Q04DX002 (ip), vehicle: Klucel (hydroxypropylcellulose) (HPC), evaluated on day 30
  T/C: 105 (2×), 106, 108, 108 [5 of 6 alive], 109 (2×), 111, 112, 115 (2×), 117 (2×), 118 (3×), 119 (5×), 122, 123, 125, 126 (2×), 127, 142, 148, 183 % of control
dose: 37.5 mg/kg/injection, schedule: Q04DX002 (ip), vehicle: Klucel (hydroxypropylcellulose) (HPC), evaluated on day 35
  T/C: 114, 116, 131 % of control
dose: 37.5 mg/kg/injection, schedule: Q04DX002 (ip), vehicle: Klucel (hydroxypropylcellulose) (HPC)
  survivor count: 2 of 3 and 6 of 6
dose: 37.5 mg/kg/injection, schedule: Q04DX003 (ip), vehicle: Klucel (hydroxypropylcellulose) (HPC)
  T/C: 106, 112, 116 (3×), 119 (5×), 122, 123, 125 (2×), 126, 128 (4×), 129, 130, 131 (2×), 132, 133, 135, 137, 138, 139, 140 (2×), 147, 153, 266 % of control
[1]
  T/C: 97, 105 (2×), 109, 111 (3×), 112 (2×), 113 (4×), 114 (2×), 115 (2×), 116 (2×), 117 (2×), 118 (2×), 119 (3×), 120, 121, 122, 123, 131 % of control
  survivor count: 6 of 6
dose: 50.0 mg/kg/injection, schedule: Q01DX005 (ip), vehicle: Klucel (hydroxypropylcellulose) (HPC), evaluated on day 30
  T/C: 100, 122, 123, 132, 137, 139, 143, 144, 145, 148, 154 (2×), 155, 156, 159, 161, 162, 163, 165 [1 of 1 alive], 166 (4×), 167, 168, 170, 172, 174, 178, 181, 192, 200 % of control
dose: 50.0 mg/kg/injection, schedule: Q01DX005 (ip), vehicle: Klucel (hydroxypropylcellulose) (HPC), evaluated on day 35
  T/C: 200 % of control
dose: 50.0 mg/kg/injection, schedule: Q01DX009 (ip), vehicle: Klucel (hydroxypropylcellulose) (HPC), evaluated on day 30
  T/C: 103, 104, 106, 108, 112, 120, 122 (2×), 123, 133, 136, 137, 138, 157, 159, 160, 165, 166, 168, 169, 172, 179, 184, 185, 190, 193, 200, 205, 209, 215, 219, 225, 261 % of control
dose: 50.0 mg/kg/injection, schedule: Q01DX009 (ip), vehicle: Klucel (hydroxypropylcellulose) (HPC), evaluated on day 35
  T/C: 104 % of control
dose: 50.0 mg/kg/injection, schedule: Q01DX009 (ip), vehicle: Klucel (hydroxypropylcellulose) (HPC)
  survivor count: 3 of 3
dose: 50.0 mg/kg/injection, schedule: Q04DX002 (ip), vehicle: Klucel (hydroxypropylcellulose) (HPC)
  T/C: 131 % of control
dose: 64.8 mg/kg/injection, schedule: Q04DX003 (ip), vehicle: saline
  T/C: 126 % of control
dose: 75.0 mg/kg/injection, schedule: Q04DX002 (ip), vehicle: Klucel (hydroxypropylcellulose) (HPC), evaluated on day 30
  T/C: 100, 112 (2×), 116 (2×), 117 (2×), 118 (3×), 120 (2×), 121 (2×), 122 (2×), 125 (2×), 126 (2×), 127 (2×), 128 (3×), 131, 133 (2×), 135 (2×), 139 % of control
dose: 75.0 mg/kg/injection, schedule: Q04DX002 (ip), vehicle: Klucel (hydroxypropylcellulose) (HPC), evaluated on day 35
  T/C: 111, 121, 131 % of control
dose: 75.0 mg/kg/injection, schedule: Q04DX002 (ip), vehicle: Klucel (hydroxypropylcellulose) (HPC)
  survivor count: 3 of 3 and 6 of 6
